PubChem BioAssay AID1159584 – Peter MacCallum Cancer Centre – 2016
The deposit covers about 18,000 reagents; shown is a part drawn at random. Further read-outs or replicates are left out here. Reagent sequences are not shown. The record does not give: the amount of reagent, the time to read-out.

- Assay: 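Genes that CDH1-null MCF10A cells selectively depend on to survive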 (primary screen)
- Cells: human MCF10A breast epithelial cells, parental and CDH1-null
- Reagent: siRNA against human genes
- Measurement: 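ATP luminescence (CellTiter-Glo) viability per line relative to mean mock wells over all plates, and the ratio of CDH1-null to parental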
- Reading the numbers: CDH1-null / parental viability ratio: higher = CDH1-null cells survive relatively better than parental; CDH1-null viability vs mock: higher = more viable CDH1-null cells

The opening 4 entries as a preview:
| gene | CDH1-null / parental viability ratio | CDH1-null viability vs mock (fraction of mock) |
| --- | --- | --- |
| PIM3 | 0.85 | 0.51 |
| DENND5A | 0.94 | 0.79 |
| TCF20 | 1.04 | 1.12 |
| SUN3 | 1.02 | 0.94 |

Main list, from the first entry:
| gene | CDH1-null / parental viability ratio | CDH1-null viability vs mock (fraction of mock) |
| --- | --- | --- |
| PIM3 | 0.85 | 0.51 |
| DENND5A | 0.94 | 0.79 |
| TCF20 | 1.04 | 1.12 |
| SUN3 | 1.02 | 0.94 |
| FAM178B | 1.05 | 0.98 |
| NAV2 | 2 | 0.52 |
| KCTD2 | 1.12 | 0.92 |
| GABRA1 | 1.04 | 0.87 |
| HHIP | 0.96 | 0.5 |
| CORO1A | 0.85 | 0.82 |
| LACC1 | 1.31 | 0.84 |
| CPE | 1.01 | 0.94 |
| DNAAF2 | 0.91 | 0.74 |
| SASS6 | 1.09 | 0.83 |
| SREK1 | 1.19 | 1.05 |
| PACC1 | 0.95 | 0.52 |
| OTP | 0.87 | 0.82 |
| HOXB9 | 0.98 | 0.62 |
| SPATC1L | 1.02 | 0.52 |
| LINC02913 | 1.08 | 0.7 |
| HAGH | 0.82 | 0.7 |
| CCDC110 | 1.15 | 1.12 |
| SMARCA5 | 0.76 | 0.9 |
| BICRA | 1.03 | 0.9 |
| CCS | 1.02 | 0.64 |
| ZNF221 | 1.18 | 1.09 |
| PRKACB | 1 | 0.87 |
| HIGD2A | 0.92 | 0.76 |
| OXSR1 | 0.81 | 0.79 |
| RPA4 | 0.71 | 0.62 |
| HDAC11 | 1.07 | 0.94 |
| WDR47 | 1.12 | 0.76 |
| ANKRD30A | 1 | 0.59 |
| EHHADH | 0.96 | 0.94 |
| AP2M1 | 1.19 | 0.62 |
| XBP1 | 1.07 | 1.02 |
| KLF4 | 1.3 | 1.09 |
| ADGRB3 | 0.57 | 0.5 |
| DRGX | 1 | 0.62 |
| NUDT2 | 1.22 | 0.82 |
| TWF1 | 0.96 | 1.01 |
| RP1L1 | 0.87 | 0.48 |
| ABCB8 | 1.22 | 1.1 |
| TM7SF2 | 0.8 | 0.6 |
| COQ7 | 0.84 | 0.8 |
| SYNE4 | 1.01 | 0.74 |
| ANKDD1A | 1.01 | 0.95 |
| ANO8 | 1.15 | 0.53 |
| CCL18 | 0.74 | 0.53 |
| F11R | 1.05 | 0.86 |
| RAD51 | 0.85 | 0.51 |
| ACAT1 | 1.02 | 1.01 |
| ADIRF | 1.23 | 0.32 |
| CCT3 | 0.85 | 0.68 |
| CAMK2A | 1.08 | 0.82 |
| ERCC3 | 0.86 | 0.71 |
| IPO4 | 1.05 | 0.9 |
| NRIP1 | 1.04 | 0.94 |
| MOGAT1 | 1 | 1 |
| KLK5 | 0.98 | 0.39 |
| DGKG | 0.89 | 0.72 |
| RPL24 | 1.67 | 0.4 |
| NLGN2 | 1 | 0.99 |
| FBXO27 | 1 | 0.82 |
| CYP20A1 | 1.01 | 0.93 |
| HOMER1 | 0.93 | 0.8 |
| ZNF256 | 0.77 | 0.78 |
| SPATA31G1 | 1.18 | 0.8 |
